This assay concerns the target FGFR1 expressed in cells (HA-tagged FGFR1; endogenous FGFR1) (human) (UniProt P11362). Put plainly: co-immunoprecipitation, IP: Flag of GREM1-Flag mutants, blot for FGFR1.

Amino acid sequences for entries named in this document (tags omitted). A change or cut given only in a name is not applied to a line headed by its entry.
UniProt P11362: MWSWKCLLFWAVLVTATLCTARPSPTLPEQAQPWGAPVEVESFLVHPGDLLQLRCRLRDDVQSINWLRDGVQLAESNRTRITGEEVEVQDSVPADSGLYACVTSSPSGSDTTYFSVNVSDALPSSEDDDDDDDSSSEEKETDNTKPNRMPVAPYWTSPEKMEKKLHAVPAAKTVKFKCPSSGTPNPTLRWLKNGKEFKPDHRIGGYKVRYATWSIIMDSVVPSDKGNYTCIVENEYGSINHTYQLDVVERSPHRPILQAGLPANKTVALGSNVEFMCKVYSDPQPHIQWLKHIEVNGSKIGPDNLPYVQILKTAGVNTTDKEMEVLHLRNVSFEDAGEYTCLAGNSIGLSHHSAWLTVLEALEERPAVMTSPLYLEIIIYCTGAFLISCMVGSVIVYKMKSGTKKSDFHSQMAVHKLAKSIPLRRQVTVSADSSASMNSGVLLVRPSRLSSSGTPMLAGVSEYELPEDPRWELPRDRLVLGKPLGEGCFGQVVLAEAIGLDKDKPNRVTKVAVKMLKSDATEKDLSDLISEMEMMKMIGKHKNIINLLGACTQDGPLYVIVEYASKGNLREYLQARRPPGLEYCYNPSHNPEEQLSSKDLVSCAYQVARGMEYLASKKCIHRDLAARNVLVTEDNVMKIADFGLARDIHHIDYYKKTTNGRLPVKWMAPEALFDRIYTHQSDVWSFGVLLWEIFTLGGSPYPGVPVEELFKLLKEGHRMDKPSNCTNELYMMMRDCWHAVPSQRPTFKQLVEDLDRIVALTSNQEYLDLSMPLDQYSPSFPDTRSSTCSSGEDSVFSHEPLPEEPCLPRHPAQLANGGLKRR

Positions count from the first letter of the chain named. In names and notes the source's numbering stands. Results are given in words; binding and its absence hold for the method and conditions named. Binding seen in cells or lysates may run through a third protein. Some results given as binding are weak or reduced against the parent protein; the word gives no strength.

B1: K66G-R67G (ligand)
single chain: KKKGSQGAIPPPDKAQHNDSEQTQSPQQPGSRNRGRGQGRGTAMPGEEVLESSQEALHVTERKYLGGDWCKTQPLKQTIHEEGCNSRTIINRFCYGQCNSFYIPRHIRKEEGSFQSCSFCKPKKFTTMMVTLNCPELQPPTKKKRVTRVKQCRCISIDLD
With B1, the binding result is listed as “binds”.

B2: R92A-R148A (ligand)
single chain: B1 single chain with G66K, G67R, R92A, R148A
Take B2: the binding result was “binds”.

The record behind these values is patent US20240190950A1, “METHOD OF TREATING DISEASES USING GREMLIN1 ANTAGONISTS” (SHANGHAI JIAO TONG UNIVERSITY, priority 2021, published 2024).
